{"source": "paper PMC8509050", "about": "“BZR1 Physically Interacts with SPL9 to Regulate the Vegetative Phase Change and Cell Elongation in Arabidopsis” (International Journal of Molecular Sciences, 2021)", "note": "No constants are given. Whether binding was seen depends on the method and setting. Binding can be weak; no strength is given. Where a sequence is shown, tags or fusion partners need not be part of it.", "data": [{"biological_target": "T1, SQUAMOSA PROMOTER BINDING PROTEIN-LIKE9 (SPL9), GAL4BD fusion (Arabidopsis thaliana) (UniProt Q700W2)", "T1 sequence": "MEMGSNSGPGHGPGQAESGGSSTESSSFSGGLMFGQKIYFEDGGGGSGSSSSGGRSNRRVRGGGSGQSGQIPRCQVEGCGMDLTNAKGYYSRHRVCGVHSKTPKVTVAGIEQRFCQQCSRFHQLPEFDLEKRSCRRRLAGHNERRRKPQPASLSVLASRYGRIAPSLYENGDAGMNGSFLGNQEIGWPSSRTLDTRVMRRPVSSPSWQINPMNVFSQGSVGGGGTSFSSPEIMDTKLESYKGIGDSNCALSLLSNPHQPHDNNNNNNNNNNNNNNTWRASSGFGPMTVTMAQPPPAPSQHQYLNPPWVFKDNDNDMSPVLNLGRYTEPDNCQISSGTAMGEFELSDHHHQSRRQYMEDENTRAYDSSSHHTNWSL", "experiment": "two-hybrid; direct test in yeast, SPL9 as GAL4BD fusion against BZR1, BES1, BIN2 and fragments of BZR1; growth on SD medium", "values": [{"substance": "BZR1-C (carboxy-terminal domain of BZR1), two-hybrid fusion (Arabidopsis thaliana) (domain or fragment)", "binding": "binds"}, {"substance": "BZR1-N (amino-terminal DNA binding domain of BZR1), two-hybrid fusion (Arabidopsis thaliana) (domain or fragment)", "binding": "no binding"}, {"substance": "PEST domain of BZR1, two-hybrid fusion (Arabidopsis thaliana) (domain or fragment)", "binding": "binds weakly"}]}]}
